Reference: paper PMC7819943, “Rice protein-binding microarrays: a tool to detect cis-acting elements near promoter regions in rice”
This is one part of the list.

Protein sequences, listed by entry. Tags and fused reporters are not part of them.
UniProt Q0JBA9, entry or part of it: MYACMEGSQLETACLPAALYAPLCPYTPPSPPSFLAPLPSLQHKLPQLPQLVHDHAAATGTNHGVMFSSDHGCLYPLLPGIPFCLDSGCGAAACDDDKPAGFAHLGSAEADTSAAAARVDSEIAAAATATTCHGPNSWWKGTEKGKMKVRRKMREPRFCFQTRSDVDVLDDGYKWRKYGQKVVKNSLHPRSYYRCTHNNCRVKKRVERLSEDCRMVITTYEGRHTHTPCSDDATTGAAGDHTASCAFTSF

molecular target: OsWRKY34 (Oryza sativa, UniProt Q0JBA9 1-250); experiment: protein-binding microarray (RPBM); PBS, 2% BSA, 51.3 ng/ul salmon testes DNA, 50 uM zinc acetate, 200 nM TF, 25 C, 1 h; high values mean tight binding; conditions: protein: recombinant; tags: N-terminal polyhistidine and DsRed monomer fusion (pET32a); label: CyDye5-dUTP incorporated in the synthesized complementary strand; 3' TTTTT single-stranded linker to array surface; dsDNA, one strand shown
Outline: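 Ni–NTA purification followed expression in E. coli BL21-CodonPlus of transcription factors fused N-terminally to a polyhistidine tag and DsRed. At 200 nM in PBS with 2% BSA, salmon testes DNA and 50 µM zinc acetate, the protein was incubated for 1 h at 25 °C with a custom Agilent array that had been primer-extended with Cy5-dUTP and blocked with 2% BSA. After washing, the array was read on an Axon 4000B scanner. The binding signal is per-feature fluorescence intensity in arbitrary units.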

Sequence	binding signal
ATATATCCATGCGAACTTCGCTCCAATAGTGAATTTTATCCGGAGTCACCTAGTGCAG	8900 fluorescence intensity (a.u.)
GCCTCATTCATCGATGAGAACATATTCTATTTTCTCGAGACGGAGTCACCTAGTGCAG	8190 fluorescence intensity (a.u.)
TCATTCACCATCGATTCCTCTCTCGGCTGCTTGCCTTCTCCGGAGTCACCTAGTGCAG	11300 fluorescence intensity (a.u.)
TCCTTTTGTCTTCCTCTAAACAAATTCTCTCTTAAGCTTTCGGAGTCACCTAGTGCAG	8060 fluorescence intensity (a.u.)
GATGGCTACCTAGCTGACACGCAACGCCGGCCTCCGGATCCGGAGTCACCTAGTGCAG	10600 fluorescence intensity (a.u.)
GGGTGGGTGGGGCGGTGCTTTCCTGGAGATGGGAGAGTGGCGGAGTCACCTAGTGCAG	23000 fluorescence intensity (a.u.)
ACATTCACATTCACGACCACATTCACCGCCACGACACTGGCGGAGTCACCTAGTGCAG	9460 fluorescence intensity (a.u.)
CTCCTCGCACCACCGGCTTCGCCTCCATCCGGCGAGTCCACGGAGTCACCTAGTGCAG	8330 fluorescence intensity (a.u.)
GGTGTGGTAGGTGATGAGATTCAATGAGATGCTAGCTGCGCGGAGTCACCTAGTGCAG	8820 fluorescence intensity (a.u.)
CTGGCCGGCGCGCGCGCGGGCGGGCGGGTTGTTCGCGATGCGGAGTCACCTAGTGCAG	8220 fluorescence intensity (a.u.)
AGGCCCTTCTACTCCTTTGGCTCTTGTTGCTTCTGGTATGCGGAGTCACCTAGTGCAG	11100 fluorescence intensity (a.u.)
ACCTATATGCAGCCCCTTCGAATATGTCCTGAGATTATTTCGGAGTCACCTAGTGCAG	9230 fluorescence intensity (a.u.)
ATTTGTCGGTCCACCTCTATTTCACGCCAACTATTTTATGCGGAGTCACCTAGTGCAG	8240 fluorescence intensity (a.u.)
ACACAAACTCCCAACTTTTCCGTCACATCGTTCCAATTTCCGGAGTCACCTAGTGCAG	9700 fluorescence intensity (a.u.)
CCGCCGTCGACCGTCTCTTCCGCGGCCTCCTCGCCGGTAACGGAGTCACCTAGTGCAG	9160 fluorescence intensity (a.u.)
GGAGTTTGTTTGTTTCGTTTTCCACACGCACGTTTCCCAACGGAGTCACCTAGTGCAG	12900 fluorescence intensity (a.u.)
TCTCGGCTCGCAATGCTTTTTGGAGTTTTGTTTCTCTCCCCGGAGTCACCTAGTGCAG	10200 fluorescence intensity (a.u.)
CCATTCATCTTTTTTATTTTTTTTTTGCAAATATATAAAACGGAGTCACCTAGTGCAG	8400 fluorescence intensity (a.u.)
CCATCCGTATCCGCTCCGTTTTCATCCCTGCTCGTCTGCCCGGAGTCACCTAGTGCAG	8610 fluorescence intensity (a.u.)
CGCTATATAACTCAGCCCGCGCGATCCCCGCACCAACCTCCGGAGTCACCTAGTGCAG	8480 fluorescence intensity (a.u.)
GCTCGCCATCGCCACCGTCGTTCACACCACACCACCTGCTCGGAGTCACCTAGTGCAG	9680 fluorescence intensity (a.u.)

A stretch from the list above, as a working copy:
Sequence	binding signal
GATGGCTACCTAGCTGACACGCAACGCCGGCCTCCGGATCCGGAGTCACCTAGTGCAG	10600 fluorescence intensity (a.u.)
GGGTGGGTGGGGCGGTGCTTTCCTGGAGATGGGAGAGTGGCGGAGTCACCTAGTGCAG	23000 fluorescence intensity (a.u.)

Going on with the list.

Sequence	binding signal
TCTTCCACGCCTACTCCCGGTTTACGCGGTTTTTCTCACTCGGAGTCACCTAGTGCAG	10800 fluorescence intensity (a.u.)
TTGGCCGGGTCTCTTGCGTTTGCATGCAACTACCTCTACTCGGAGTCACCTAGTGCAG	8990 fluorescence intensity (a.u.)
TTTGAATTCGTGTGCGTTGCTGTACTATACTTGTGATGATCGGAGTCACCTAGTGCAG	8290 fluorescence intensity (a.u.)
ATGGTTTGGATTCCTGCACAAATTTGATTGCATGCCTTCCCGGAGTCACCTAGTGCAG	8660 fluorescence intensity (a.u.)
TTGACACCGTTGACTTTTTAGCACATGTTTGACCGTTCGTCGGAGTCACCTAGTGCAG	35800 fluorescence intensity (a.u.)
CGATCGCATCGCTCGCATCAGCTGCCGCTAGCTGTCCATTCGGAGTCACCTAGTGCAG	8670 fluorescence intensity (a.u.)
TCGACTATTTAGGGTTTGTTGTTGGGTTGAACTTTATGGGCGGAGTCACCTAGTGCAG	9290 fluorescence intensity (a.u.)
CGCGCCACATACTGCTACTAGCAACGCTCCACTTGCTTGACGGAGTCACCTAGTGCAG	8140 fluorescence intensity (a.u.)
TCCCTCATTTCTCCTTTTTTTTTTAATCTATTTTTTTTGACGGAGTCACCTAGTGCAG	9140 fluorescence intensity (a.u.)
TGTTTTCTTCCATGTGTACTACAAGGGGTCGGTCTATCATCGGAGTCACCTAGTGCAG	9640 fluorescence intensity (a.u.)
TCTACTATTTTTCTTGTTATTTGTAATTACATAAATTATACGGAGTCACCTAGTGCAG	8360 fluorescence intensity (a.u.)
CTCTGTTTCTTCCTTTTTGTTTTTCTTTCGAGAGAGAAAACGGAGTCACCTAGTGCAG	9790 fluorescence intensity (a.u.)
CATCCTCAAGTCGCTGTGACCGCACCATGCATATTCACATCGGAGTCACCTAGTGCAG	8700 fluorescence intensity (a.u.)
GAGGTCCTCCCTTCTTCGCTTCTTCCAATCCATGGGCCGCCGGAGTCACCTAGTGCAG	8340 fluorescence intensity (a.u.)
TAGTCACACATTTGATCATTCGTCTTATTCAAAAAATTTACGGAGTCACCTAGTGCAG	8620 fluorescence intensity (a.u.)
TTGGGATGTTTCATATTCAATTTTACGGTTAAGGGACGTACGGAGTCACCTAGTGCAG	9350 fluorescence intensity (a.u.)
GGAGTCTTTGCTTGCTCGAGTAATATAATGCTGTTAACCCCGGAGTCACCTAGTGCAG	8550 fluorescence intensity (a.u.)
CTCCCTCGTCTTTCTGCTGGCCACCACCCTCCCCGTCTTCCGGAGTCACCTAGTGCAG	12300 fluorescence intensity (a.u.)
TACCATGAGCTAGTTTTTGTTCTTGTGCCTTTTGTTCTTACGGAGTCACCTAGTGCAG	13600 fluorescence intensity (a.u.)
TCTTCGATTTCTTGCTTCTTGATTCGTCGCCGCTGCTGCTCGGAGTCACCTAGTGCAG	10200 fluorescence intensity (a.u.)
TCCTATGGAGTAATTATATTTTGCAGTTGCAGCCATCAGTCGGAGTCACCTAGTGCAG	8880 fluorescence intensity (a.u.)
